Experiments:
Caco-2 cell monolayers = experiment: Caco-2 permeability assay; format: in vitro ADME
Procedure: (§1) Caco-2 permeability assay. To assay the permeability of test compounds by Caco-2 cell model, Caco-2 cells were cultured to confluency before being trypsinized and seeded onto filter transwell inserts at a density of 30,000 cells/well in DMEM medium. Cells were cultured in a humidified atmosphere with 5% CO2 at 37° C. After overnight attachment, cell medium was replaced with fresh medium at both apical and basolateral sides every other day. The cell monolayers are ready for the assay 20 days post seeding. […] The dosing solution at 10 μM was obtained by diluting 10 mM stock solution in HBSS medium (pH 7.4, 25 mM HEPES) freshly before the assay. Terfenadine (25 ng/mL) and Tolbutamide (50 ng/mL) were added into dosing solution as internal standards. […] The culture medium from either the basolateral side (plate B) or apical side (plate A) were aspirated and then rinsed with HBSS medium once. Afterwards, the dosing medium was added to either basolateral or apical side. Following the incubation, 100 microliter samples from both sides were harvested at time 0 and time 90 min. Samples were quenched with acetonitrile/methanol (1:1 v/v), centrifuged, and analyzed on a Shimadzu reversed-phase HPLC and Sciex API4500 Q trap instrument.
(§2) Permeability parameters were calculated using the following equations and shown in Table 10: Papp=(Conc.receiver,90 min*Volumereceiver)/(Time*Membrane Area*Conc.donor,0 min) Efflux Ratio=Papp[B to A]/Papp[A to B]

[1] = Caco-2 permeability assay; format: in vitro ADME; details: human, Caco-2, pH 7.4
Procedure: as §1, §2

Pgp Substrate (Caco-2 cell monolayers): No | Papp A→B at 90 min, 10 μM ([1]; N = 2, 10 μM, 90 min): 0.4 ×10⁻⁶ cm/s | Papp B→A at 90 min, 10 μM ([1]; N = 2, 10 μM, 90 min): 0.6 ×10⁻⁶ cm/s | efflux ratio at 90 min, 10 μM ([1]; Papp[B to A]/Papp[A to B]): 1.5
Structure (SMILES): CC(C)NCC(O)COc1ccc(CC(N)=O)cc1 (stereo not shown) [Atenolol]
